Source: publication PMC4359135

Sequences of proteins named here, by UniProt entry; tags and fusion partners are left off. A change or cut given only in a name is not applied to a line headed by its entry.
UniProt Q9BST9: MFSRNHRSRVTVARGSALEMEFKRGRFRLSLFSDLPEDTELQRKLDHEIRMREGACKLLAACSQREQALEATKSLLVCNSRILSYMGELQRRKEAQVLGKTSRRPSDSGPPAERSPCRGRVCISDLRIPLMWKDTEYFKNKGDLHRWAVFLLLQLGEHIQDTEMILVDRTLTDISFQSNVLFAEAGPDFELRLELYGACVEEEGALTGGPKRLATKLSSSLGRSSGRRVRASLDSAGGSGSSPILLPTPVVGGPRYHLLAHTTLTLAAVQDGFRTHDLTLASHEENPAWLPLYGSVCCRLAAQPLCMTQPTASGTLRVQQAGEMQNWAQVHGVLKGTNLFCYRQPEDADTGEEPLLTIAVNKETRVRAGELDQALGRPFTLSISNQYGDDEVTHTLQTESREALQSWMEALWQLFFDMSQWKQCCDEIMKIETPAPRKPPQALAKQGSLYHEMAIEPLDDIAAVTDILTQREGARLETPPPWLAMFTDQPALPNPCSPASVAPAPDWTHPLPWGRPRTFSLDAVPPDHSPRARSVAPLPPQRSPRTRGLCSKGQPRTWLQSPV
UniProt P61586: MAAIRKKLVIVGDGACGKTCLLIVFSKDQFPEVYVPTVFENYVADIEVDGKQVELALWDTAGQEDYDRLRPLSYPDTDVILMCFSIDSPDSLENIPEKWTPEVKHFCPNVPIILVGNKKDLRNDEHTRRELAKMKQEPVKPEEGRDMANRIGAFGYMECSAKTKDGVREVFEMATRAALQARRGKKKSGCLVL

Target: GST-Rhotekin-Rho-binding-domain (UniProt Q9BST9)
Test: pull-down; GST fusion proteins as baits; clarified CFBE41o- lysates in LIL buffer (25 mM Tris-HCl pH 7.5, 150 mM NaCl, 5 mM MgCl2, 1% NP-40, 1 mM DTT, 5% glycerol); GTPases loaded with GTP-γS (10 mM EDTA, 0.1 mM GTP-γS, 15 min at 30°C, then 60 mM MgCl2); cells treated before lysis with 10 μM ML141 or 1% DMSO for 30 min; Western blot; only the target purified

- binding: binds
Substance: RhoA (from UniProt P61586 1-193)

These are yes or no findings as the source states them, for the method shown. Binding seen in cells or lysates may run through a third protein. Binding calls can cover weak binding; strength is not graded here.
